Like-named read-outs stand apart in the source and are kept apart here. No constants are given. Whether binding was seen depends on the method and setting. In cells and extracts the contact can be indirect. These calls come from enrichment with a bait or labelling near it, and not all partners need be listed.
How the values were obtained:
Experiment in all cases: affinity purification with mass spectrometry
[1] = target: DPY30 (endogenous, human PDAC cells) (human (endogenous in PATC53 and PATC66)) (UniProt Q9C005)
[2] = target: DPY30 (endogenous, human PDAC cells) (human (endogenous in PATC53 and PATC66)) (UniProt Q9C005); remark: listed apart in the source
[3] = target: DPY30 (endogenous, mouse KPC cells) (mouse (endogenous in KPC)) (UniProt Q99LT0)

Sequences of proteins named here, by UniProt entry; tags and fusion partners are left off.
UniProt Q9C005: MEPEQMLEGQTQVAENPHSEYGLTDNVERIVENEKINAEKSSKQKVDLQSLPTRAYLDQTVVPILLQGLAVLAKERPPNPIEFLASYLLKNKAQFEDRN
UniProt Q99LT0: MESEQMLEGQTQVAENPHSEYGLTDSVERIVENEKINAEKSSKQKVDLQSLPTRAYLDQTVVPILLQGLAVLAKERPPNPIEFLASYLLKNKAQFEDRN

| binding [1] | binding [2] | binding [3] | Binder |
| --- | --- | --- | --- |
| binds | binds |  | WDHD1 (endogenous, human PDAC cells) (protein, UniProt O75717 1-1129) MPATRKPMRYGHTEGHTEVCFDDSGSFIVTCGSDGDVRIWEDLDDDDPKFINVGEKAYSCALKSGKLVTAVSNNTIQVHTFPEGVPDGILTRFTTNANHVVFNGDGTKIAAGSSDFLVKIVDVMDSSQQKTFRGHDAPVLSLSFDPKDIFLASASCDGSVRVWQISDQTCAISWPLLQKCNDVINAKSICRLAWQPKSGKLLAIPVEKSVKLYRRESWSHQFDLSDNFISQTLNIVTWSPCGQYLAAGSINGLIIVWNVETKDCMERVKHEKGYAICGLAWHPTCGRISYTDAEGNLGLLENVCDPSGKTSSSKVSSRVEKDYNDLFDGDDMSNAGDFLNDNAVEIPSFSKGIINDDEDDEDLMMASGRPRQRSHILEDDENSVDISMLKTGSSLLKEEEEDGQEGSIHNLPLVTSQRPFYDGPMPTPRQKPFQSGSTPLHLTHRFMVWNSIGIIRCYNDEQDNAIDVEFHDTSIHHATHLSNTLNYTIADLSHEAILLACESTDELASKLHCLHFSSWDSSKEWIIDLPQNEDIEAICLGQGWAAAATSALLLRLFTIGGVQKEVFSLAGPVVSMAGHGEQLFIVYHRGTGFDGDQCLGVQLLELGKKKKQILHGDPLPLTRKSYLAWIGFSAEGTPCYVDSEGIVRMLNRGLGNTWTPICNTREHCKGKSDHYWVVGIHENPQQLRCIPCKGSRFPPTLPRPAVAILSFKLPYCQIATEKGQMEEQFWRSVIFHNHLDYLAKNGYEYEESTKNQATKEQQELLMKMLALSCKLEREFRCVELADLMTQNAVNLAIKYASRSRKLILAQKLSELAVEKAAELTATQVEEEEEEEDFRKKLNAGYSNTATEWSQPRFRNQVEEDAEDSGEADDEEKPEIHKPGQNSFSKSTNSSDVSAKSGAVTFSSQGRVNPFKVSASSKEPAMSMNSARSTNILDNMGKSSKKSTALSRTTNNEKSPIIKPLIPKPKPKQASAASYFQKRNSQTNKTEEVKEENLKNVLSETPAICPPQNTENQRPKTGFQMWLEENRSNILSDNPDFSDEADIIKEGMIRFRVLSTEERKVWANKAKGETASEGTEAKKRKRVVDESDETENQEEKAKENLNLSKKQKPLDFSTNQKLSAFAFKQE |
|  |  | binds | WDHD1 (endogenous, mouse KPC cells) (protein, UniProt P59328 1-1117) MPATQKPMRYGHTEGHTEVCFDDSGSYIVTCGSDGDVRMWEDLDDDDPKSVNVGEKAFSCALKNGKLVTAVSNNTVQVYTFPEGVPDGILTRFTTNANHVVFNGAGNKIAAGSSDFLVKVVDVMDNSQQQTFRGHDAPVLSLSFDPKDIFLASASCDGTVRVWNISDQTCAVSWPVLQKSNDVVNAKSICRLAWQPKAGKLLAVPVEKSVKLYRRETWSNPFDLSDSSISQTLNIVTWSPCGQYLAAGAINGLIVVWNVETKDCMERVKHEKGYAICGLAWHPTCSRICYTDVEGNLGVLENVCDLSGKVSSNKVSSRVEKDYNDLFDGDDTSSAGDFLNDNAVEIPSFSKGIINEDDDNDDIMLAADHDLGDDENSVDVTMLKADLSHKEEGDDDQARSIHNLPLIRPQRPFYDGPMPTPRQKPFQSSSTPLHLSHRFMVWNSVGIIRCYNDDQDSAIDVEFHDTSIHHATHLLNAFNYTMGTLSHEAILLACESADELASKLHCLHFSSWDSSKEWMVDMPQNEDIEAICLGLGWAAAATTALLLRLFTIGGVQKEVFCLPGPVVSMAGHGEQLCIVYHRGTGFDGDQCLGVQLLELGRKKNQVLHGDPLPLTRKSYLTWLGFSAEGTPCYVDSEGCVRMLNRGLGNTWTPVCNIREHCKGKSDHYWVVGIHENPQQLRCIPCKGSRFPPTLPRPAVAILSFKLPYCQTSTEKGQMEEQFWHSVLFHNYLDYLAKNGYDYEESIKNQAVKEQQELLMKMLALSCKLEREFRCVELADLMTQNAVHLAIKYASRSRKLILAQKLSELAAEKAAELAETQSEEEKEEDFREKLNAGYSHTTTEWSRPRVRSQVEDAEDREDTVSEEKPESHNHGQNLFQSANSSDTPALKSGAVFSSSQGWVNPFKVVVSSKEPAVSANSTRSANILDSMNKSSRKSTSLNRMENNEKSPVIKPLTPKPRSKQASAASYFQKRTPQADKTEEVKENPKSSSSDAPAVCLQNSENQRPKTGFQMWLEENRSQILSDNPDISDETDIIKEGMIRFRVLSAEERKAWTNKAKGETASDGAEAKKRKRVVSEICETENQEETVKENLDLSKKQKALNLPANQKLSAFAFKQ |
